Test results from article doi:10.1101/2022.12.14.520480.
No constants are given. Whether binding was seen depends on the method and setting. Binding seen in cells or lysates may run through a third protein. Some results given as binding are weak or reduced against the parent protein; the word gives no strength. For some assays here: Tags and fused reporters may be left off the sequences shown.

Chains of the proteins cited; added tags and fusions are not shown.
UniProt Q00610: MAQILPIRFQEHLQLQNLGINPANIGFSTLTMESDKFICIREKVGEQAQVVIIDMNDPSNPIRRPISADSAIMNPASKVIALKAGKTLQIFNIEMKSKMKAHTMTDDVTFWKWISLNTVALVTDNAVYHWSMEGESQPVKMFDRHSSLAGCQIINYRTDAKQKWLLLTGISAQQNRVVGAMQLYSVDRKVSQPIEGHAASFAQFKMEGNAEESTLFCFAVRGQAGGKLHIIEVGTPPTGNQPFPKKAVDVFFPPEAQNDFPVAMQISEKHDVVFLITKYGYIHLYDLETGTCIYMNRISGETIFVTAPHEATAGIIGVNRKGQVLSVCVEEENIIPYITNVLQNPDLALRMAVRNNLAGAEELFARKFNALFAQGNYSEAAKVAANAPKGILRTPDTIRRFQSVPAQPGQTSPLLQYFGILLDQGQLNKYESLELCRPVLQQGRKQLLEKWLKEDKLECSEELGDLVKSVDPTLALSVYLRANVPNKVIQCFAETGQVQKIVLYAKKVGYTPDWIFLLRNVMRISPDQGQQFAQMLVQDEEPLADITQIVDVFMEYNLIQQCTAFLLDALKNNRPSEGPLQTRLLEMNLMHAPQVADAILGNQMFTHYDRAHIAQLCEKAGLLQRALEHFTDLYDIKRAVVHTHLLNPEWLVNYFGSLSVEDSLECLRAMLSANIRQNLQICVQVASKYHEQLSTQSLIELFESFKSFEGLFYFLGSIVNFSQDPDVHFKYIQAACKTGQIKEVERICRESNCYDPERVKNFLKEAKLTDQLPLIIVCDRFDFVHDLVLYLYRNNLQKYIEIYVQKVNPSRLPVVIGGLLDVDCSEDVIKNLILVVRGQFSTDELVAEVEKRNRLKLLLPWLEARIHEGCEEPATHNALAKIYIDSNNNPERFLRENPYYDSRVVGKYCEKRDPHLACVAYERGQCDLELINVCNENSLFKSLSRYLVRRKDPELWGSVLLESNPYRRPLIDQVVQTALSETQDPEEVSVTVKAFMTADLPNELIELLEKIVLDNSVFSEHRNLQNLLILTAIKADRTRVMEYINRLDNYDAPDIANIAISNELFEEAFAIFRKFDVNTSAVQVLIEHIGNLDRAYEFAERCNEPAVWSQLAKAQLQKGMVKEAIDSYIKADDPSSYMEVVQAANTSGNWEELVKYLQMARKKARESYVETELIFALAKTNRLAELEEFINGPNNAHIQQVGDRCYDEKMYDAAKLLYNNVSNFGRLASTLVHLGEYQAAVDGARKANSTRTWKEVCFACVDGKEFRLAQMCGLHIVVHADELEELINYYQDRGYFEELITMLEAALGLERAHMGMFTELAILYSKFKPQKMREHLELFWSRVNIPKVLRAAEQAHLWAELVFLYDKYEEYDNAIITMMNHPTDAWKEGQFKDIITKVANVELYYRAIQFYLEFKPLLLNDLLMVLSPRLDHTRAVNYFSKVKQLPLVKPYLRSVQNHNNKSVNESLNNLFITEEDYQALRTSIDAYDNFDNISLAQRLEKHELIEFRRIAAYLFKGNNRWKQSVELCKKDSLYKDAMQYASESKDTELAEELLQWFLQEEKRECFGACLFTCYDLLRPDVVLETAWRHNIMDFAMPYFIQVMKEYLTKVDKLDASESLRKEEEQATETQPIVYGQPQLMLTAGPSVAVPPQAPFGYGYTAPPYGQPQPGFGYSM

Experiments:
[1] = target: T1, GST-TBC1D15 ΔCter (amino acids 1–399) (UniProt Q8TC07); test: pull-down
T1 sequence: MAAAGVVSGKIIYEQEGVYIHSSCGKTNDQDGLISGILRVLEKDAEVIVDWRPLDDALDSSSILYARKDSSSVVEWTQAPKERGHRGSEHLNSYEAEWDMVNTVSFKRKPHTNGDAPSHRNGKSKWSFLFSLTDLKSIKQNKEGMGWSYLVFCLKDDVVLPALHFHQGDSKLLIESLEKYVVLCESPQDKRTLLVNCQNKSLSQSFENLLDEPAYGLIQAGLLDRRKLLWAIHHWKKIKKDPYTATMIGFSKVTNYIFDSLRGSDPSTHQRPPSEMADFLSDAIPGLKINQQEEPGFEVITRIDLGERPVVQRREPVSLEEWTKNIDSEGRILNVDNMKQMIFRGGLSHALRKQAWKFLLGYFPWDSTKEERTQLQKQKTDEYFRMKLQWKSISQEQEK

[2] = target: T2, Dynamin2 (endogenous) (human (endogenous in HeLa and HEK 293T)) (UniProt P50570); test: co-IP
T2 sequence: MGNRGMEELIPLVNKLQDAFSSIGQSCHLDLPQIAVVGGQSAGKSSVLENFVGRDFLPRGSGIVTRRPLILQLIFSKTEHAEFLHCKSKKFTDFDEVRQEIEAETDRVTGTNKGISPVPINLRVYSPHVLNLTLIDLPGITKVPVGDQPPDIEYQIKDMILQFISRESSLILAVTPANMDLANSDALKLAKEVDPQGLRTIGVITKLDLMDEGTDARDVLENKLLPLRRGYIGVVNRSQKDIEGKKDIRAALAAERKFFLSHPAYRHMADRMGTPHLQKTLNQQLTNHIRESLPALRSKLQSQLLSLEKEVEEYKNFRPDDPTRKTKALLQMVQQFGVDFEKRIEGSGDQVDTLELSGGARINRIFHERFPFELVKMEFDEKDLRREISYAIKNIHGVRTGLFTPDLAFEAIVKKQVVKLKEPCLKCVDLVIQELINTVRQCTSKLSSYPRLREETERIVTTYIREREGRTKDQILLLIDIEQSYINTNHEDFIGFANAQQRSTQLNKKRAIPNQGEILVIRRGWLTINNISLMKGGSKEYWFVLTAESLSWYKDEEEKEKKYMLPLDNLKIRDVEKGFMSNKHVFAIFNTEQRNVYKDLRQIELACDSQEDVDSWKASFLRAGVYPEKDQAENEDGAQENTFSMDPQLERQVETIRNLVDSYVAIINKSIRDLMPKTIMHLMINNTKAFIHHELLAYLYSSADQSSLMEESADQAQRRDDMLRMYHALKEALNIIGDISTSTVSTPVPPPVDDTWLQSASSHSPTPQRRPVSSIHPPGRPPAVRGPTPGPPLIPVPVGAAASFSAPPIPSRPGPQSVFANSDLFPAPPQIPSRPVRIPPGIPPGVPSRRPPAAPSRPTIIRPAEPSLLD

- binding [1]: binds
- binding [2]: binds
Substance: Clathrin heavy chain CLTC (endogenous) (from UniProt Q00610 1-1675)
